At least one compound was matched to its structure with a doubt left.
Test system: zebrafish
Test: Screening for acetylcholine neurotransmission-related materials by innate color preference (blue/yellow color maze)
Format: in vivo, zebrafish (Danio rerio)
Conditions: five days old fish

Compound: CC(=O)OCC[N+](C)(C)C [acetylcholine]
- concentration dependence of change in color preference (acetylcholine increased from 20 mM to 50 mM): the color preference was changed to yellow in a concentration-dependent manner
- change in color preference (number of young zebrafish in blue and yellow sections) (acetylcholine 20, 50, 100 mM vs egg water, counted every two minutes for one hour, 100 mM P<0.001, FIG. 8): moved overtime to yellow that is their avoided color

— US20160310619A1, “SCREENING METHODS FOR ACETYLCHOLINE RELATED BIOACTIVE MATERIALS USING INHERITED COLOR PREFERENCE OF FISH” (GENOMIC DESIGN BIOENGINEERING COMPANY, priority 2014, published 2016)
